The exact form of at least one protein or probe is not confirmed. No signal at the amounts used counts as a negative.
Target: His-TF (trigger factor tag control) (UniProt P0A850)
Assay: EMSA
Conditions: tag-only control; not given; EMSA as described in Ma et al. 2018; cold competitor 10x, 20x, 40x; recombinant protein; protein details: His

Sequences of proteins named here, by UniProt entry; tags and fusion partners are left off. A change or cut given only in a name is not applied to a line headed by its entry.
UniProt P0A850: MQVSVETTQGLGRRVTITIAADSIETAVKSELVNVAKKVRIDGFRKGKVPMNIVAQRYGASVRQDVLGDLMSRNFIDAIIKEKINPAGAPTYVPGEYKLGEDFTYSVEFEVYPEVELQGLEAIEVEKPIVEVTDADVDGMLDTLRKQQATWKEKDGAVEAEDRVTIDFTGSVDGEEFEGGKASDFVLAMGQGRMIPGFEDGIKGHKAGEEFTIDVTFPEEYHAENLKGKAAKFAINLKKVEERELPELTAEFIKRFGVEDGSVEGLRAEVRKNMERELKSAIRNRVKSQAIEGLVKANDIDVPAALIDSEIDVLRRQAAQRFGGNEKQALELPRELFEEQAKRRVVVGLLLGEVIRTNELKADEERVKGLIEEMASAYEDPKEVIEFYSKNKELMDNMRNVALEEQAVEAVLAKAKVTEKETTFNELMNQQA

“GTCGCTAAACTTGCCACGGTCCCACTTTTTCAACTCTTATTA (double strand) [Dq probe (DBR2 promoter)]”: no binding.

From article PMC8313134
